Measured values as given in article doi:10.1101/2023.10.26.562393.
These are yes or no findings as the source states them, for the method shown. Binding seen in cells or lysates may run through a third protein. A result given as binding can be weak or reduced; the word gives no strength.

Amino acid sequences for entries named in this document (tags omitted). A change or cut given only in a name is not applied to a line headed by its entry.
UniProt Q9UQ84: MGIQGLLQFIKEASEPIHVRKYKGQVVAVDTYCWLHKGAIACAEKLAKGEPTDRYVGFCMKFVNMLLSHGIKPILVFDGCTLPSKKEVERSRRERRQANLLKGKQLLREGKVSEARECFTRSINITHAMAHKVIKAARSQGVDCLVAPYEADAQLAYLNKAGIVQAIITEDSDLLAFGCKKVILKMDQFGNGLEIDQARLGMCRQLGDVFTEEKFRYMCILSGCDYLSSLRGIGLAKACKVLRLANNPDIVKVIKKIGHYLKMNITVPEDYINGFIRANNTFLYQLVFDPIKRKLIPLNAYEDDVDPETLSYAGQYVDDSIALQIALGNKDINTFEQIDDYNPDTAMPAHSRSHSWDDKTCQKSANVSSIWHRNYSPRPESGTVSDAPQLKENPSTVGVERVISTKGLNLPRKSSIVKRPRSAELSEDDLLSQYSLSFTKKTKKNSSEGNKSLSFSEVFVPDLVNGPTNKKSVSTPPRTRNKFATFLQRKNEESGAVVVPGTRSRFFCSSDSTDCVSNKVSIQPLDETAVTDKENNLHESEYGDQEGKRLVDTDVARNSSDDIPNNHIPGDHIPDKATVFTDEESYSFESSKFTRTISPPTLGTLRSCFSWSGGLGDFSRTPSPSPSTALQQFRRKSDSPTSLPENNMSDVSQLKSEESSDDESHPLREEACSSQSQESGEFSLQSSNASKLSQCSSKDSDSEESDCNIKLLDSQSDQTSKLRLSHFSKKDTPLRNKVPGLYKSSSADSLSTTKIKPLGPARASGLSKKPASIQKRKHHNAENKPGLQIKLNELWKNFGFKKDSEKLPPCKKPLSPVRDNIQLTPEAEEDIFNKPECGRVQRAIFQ

What was measured:
Test in all cases: co-IP
Flag-EXO1 = Flag-EXO1 (UniProt Q9UQ84)
[1] = biological target: EXO1 lacking the MLH1 interaction domain part 1 (391-490)
[2] = biological target: EXO1 lacking the MSH3 interaction domain (129-390)
[3] = biological target: EXO1 lacking the exonuclease domain (residues 16 to 256)
[4] = biological target: GFP-EXO1 with serine 815 mutated to alanine (UniProt Q9UQ84)

| binding (Flag-EXO1) | binding [1] | binding [2] | binding [3] | binding [4] | Molecule |
| --- | --- | --- | --- | --- | --- |
| binds |  |  |  |  | GFP-cyclin F L35A/P36A (from UniProt P41002) |
|  | binds | binds | binds | binds | endogenous cyclin F (HEK293T) (protein, UniProt P41002 1-786) MGSGGVVHCRCAKCFCYPTKRRIRRRPRNLTILSLPEDVLFHILKWLSVEDILAVRAVHSQLKDLVDNHASVWACASFQELWPSPGNLKLFERAAEKGNFEAAVKLGIAYLYNEGLSVSDEARAEVNGLKASRFFSLAERLNVGAAPFIWLFIRPPWSVSGSCCKAVVHESLRAECQLQRTHKASILHCLGRVLSLFEDEEKQQQAHDLFEEAAHQGCLTSSYLLWESDRRTDVSDPGRCLHSFRKLRDYAAKGCWEAQLSLAKACANANQLGLEVRASSEIVCQLFQASQAVSKQQVFSVQKGLNDTMRYILIDWLVEVATMKDFTSLCLHLTVECVDRYLRRRLVPRYRLQLLGIACMVICTRFISKEILTIREAVWLTDNTYKYEDLVRMMGEIVSALEGKIRVPTVVDYKEVLLTLVPVELRTQHLCSFLCELSLLHTSLSAYAPARLAAAALLLARLTHGQTQPWTTQLWDLTGFSYEDLIPCVLSLHKKCFHDDAPKDYRQVSLTAVKQRFEDKRYGEISQEEVLSYSQLCAALGVTQDSPDPPTFLSTGEIHAFLSSPSGRRTKRKRENSLQEDRGSFVTTPTAELSSQEETLLGSFLDWSLDCCSGYEGDQESEGEKEGDVTAPSGILDVTVVYLNPEQHCCQESSDEEACPEDKGPQDPQALALDTQIPATPGPKPLVRTSREPGKDVTTSGYSSVSTASPTSSVDGGLGALPQPTSVLSLDSDSHTQPCHHQARKSCLQCRPPSPPESSVPQQQVKRINLCIHSEEEDMNLGLVRL |
